PubChem BioAssay AID504834 (National Center for Advancing Translational Sciences (NCATS), 2011)
Several values for one entry are separate records, joined by “and”; a condition that tells them apart may be missing. Equal values may be shown once. The whole screen tested about 320,000 compounds, of which about 22,000 (6.9%) were called active. The inconclusive results got no clear call from the source; some entries with a clear call stand among them for comparison. Calls follow the shape of the dose curve; as a rule, active = well fitted inhibition curve with a large enough effect; inconclusive = small, poorly fitted or top-dose-only effect, or another doubt; inactive = no such curve, though single readings can be large or run the other way. A potency beside an inconclusive call is a rough fit, not a confirmed value.

test: Primary qHTS for delayed death inhibitors of the malarial parasite plastid, 96 hour incubation; settings: P. falciparum luciferase reporter growth; series mostly up to 28.7 µM; activity change, negative = inhibition: at the top concentration
In short: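 Two parasite generations (96 h, 37 C, 5% CO2) of compound exposure in infected erythrocytes (0.05% parasitemia, 2% hematocrit). Luciferase-reporter P. falciparum; decreased luminescence indicates inhibited growth, aimed at apicoplast-acting delayed death.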
% is scaled to controls: 0 for no effect and ±100 for the full control effect; potency is read from the fitted curve at half-maximal effect.

| Compound | Potency | activity change, negative = inhibition |
| --- | --- | --- |
| COCCNC(=O)CSc1nnc(-c2ccccc2)c(-c2ccccc2)n1 | inconclusive: 9.28 µM [inhibitor, partial curve] | – |
| O=C1NC(=O)N(c2ccc(F)cc2)C(=O)/C1=C/c1ccsc1 | – | inactive: 0% |
| COc1ccc(OCC(=O)OC2CCN(C)CC2)cc1 | inconclusive: 13.1 µM [inhibitor, single point] | – |
| CC(C)COc1ccc(CNC(=S)NCc2ccccc2)cc1 | – | inactive: 32.7% |
| CC1CCN(CCCNC(=O)C2CCC(=O)N2C2CCCC2)CC1 (stereo unspecified) | inconclusive: 18.5 µM [inhibitor, single point] | – |
| CNC1=CN(O)C(c2ccccc2)=c2cc(Cl)ccc2=N1 | active: 15.1 µM and active: 13.5 µM | – |
| O=C(Nc1ccccc1Oc1ccccc1)c1cccc([N+](=O)[O-])c1 | – | inactive: 7.17% |
| N#Cc1c(NC(=O)CCN2C(=O)c3ccccc3C2=O)oc(-c2ccccc2)c1-c1ccccc1 | – | inactive: 24.5% |
| COc1ccccc1NS(=O)(=O)c1cccc(C(=O)N/N=C(\C)c2ccc(-n3ccnc3)cc2)c1 | active: 13.1 µM | – |
| CCOC(=O)c1ccccc1O | – | inactive: -15.4% |
| Cn1ccc(C(=O)OCC(=O)Nc2cccc(Cl)c2)n1 | inconclusive: 18.5 µM [inhibitor, single point] | – |
| O=C(CSCc1c(F)cccc1Cl)NCc1ccco1 | – | inactive: 60.6% |
| COc1ccc(CCNC(=O)C(=O)c2cn(CC(=O)N3CCOCC3)c3ccccc23)cc1OC | inconclusive: 18.5 µM [inhibitor, single point] | – |
| COc1cc(C2C(C#N)=C(N)N(c3cccnc3)C3=C2C(=O)CCC3)ccc1O (stereo unspecified) | inconclusive: 16.5 µM [inhibitor, partial curve, poor fit] | – |
| O=C(CCn1c(=O)oc2ccccc21)n1c(=O)oc2ccccc21 | – | inactive: 25.2% |
| NCCNc1ccc([N+](=O)[O-])c(Sc2nc3ccccc3[nH]2)c1 | active: 13.1 µM | – |
| CCOC(=O)Cn1cc(C#N)c2cccc(CC)c21 | active: 0.738 µM | – |
| COc1ccc(N(C(=O)c2cc3ccccc3oc2=O)C2C=CS(=O)(=O)C2)c(OC)c1 (stereo unspecified) | – | inactive: -7.41% |
| Cc1ccc(C)c(CSc2ccc3nnc(-c4ccccn4)n3n2)c1 | inconclusive: 3.7 µM [inhibitor, partial curve, poor fit] | – |
| CN(C)c1cc[n+](CC(O)C[n+]2ccc(N(C)C)cc2)cc1 | active: 4.65 µM | – |
| CCCOc1ccccc1NP(=O)(Oc1ccccc1)Oc1ccccc1 | inconclusive: 18.5 µM [inhibitor, single point] | – |
| CCOCCCNC(=O)CCn1ccc2cc(S(=O)(=O)N3CCCC3)ccc21 | active: 10.4 µM | – |
| Cc1c(C)c2cc3c(C)coc3cc2oc1=O | active: 5.22 µM | – |

| Compound | Potency | activity change, negative = inhibition |
| --- | --- | --- |
| CN(C(=O)COC(=O)/C=C/c1ccc(S(=O)(=O)N2CCc3ccccc32)cc1)C1CCS(=O)(=O)C1 (stereo unspecified) | inconclusive: 10.4 µM [inhibitor, single point] | – |
| CC(C)(C)n1ncc2c(=O)n(Cc3ccc(Cl)c(Cl)c3)cnc21 | inconclusive: 4.15 µM [inhibitor, single point] | – |
| CCOc1cccc2sc(N(CCN(C)C)C(=O)/C=C/c3cccs3)nc12 | inconclusive: 13.1 µM [inhibitor, single point] | – |
| COc1cccc(C(CC(=O)Nc2cccc3ccccc23)NC(=O)c2ccccc2)c1 (stereo unspecified) | inconclusive: 9.28 µM [inhibitor, partial curve, poor fit] | – |
| CCOC(=O)c1c(C)[nH]c(C)c1C(=O)CSc1nc2ccccc2c(=O)n1-c1ccc(F)cc1 | inconclusive: 14.7 µM [inhibitor, single point] | – |
| COc1ccc(CNC(=O)CC(C)S(=O)(=O)c2ccc3c(c2)NC(=O)CO3)cc1 (stereo unspecified) | inconclusive: 18.5 µM [inhibitor, single point] | – |
| Cc1ccc(CS(=O)Cc2ccc(C(=O)NC3CCCCCC3)o2)cc1 (stereo unspecified) | inconclusive: 18.5 µM [inhibitor, single point] | – |
| Cc1cc(-c2nnc(SCC(=O)Nc3ccccc3F)n2N)n[nH]1 | – | inactive: -12.6% |
| CCCN1CCC(NC(=O)CC2C(=O)NCCN2Cc2ccccc2C)CC1 (stereo unspecified) | active: 10.4 µM | – |
| COC(=O)c1ccc(NC(=O)CCS(=O)(=O)c2ccc(Br)cc2)cc1 | inconclusive: 0.0033 µM [inhibitor, full curve, poor fit] | – |
| O=S(=O)(NCc1ccccn1)c1ccc(Cl)s1 | – | inactive: -10% |
| Cc1ccc(C)c(-c2[nH]ncc2CN2CCCC(CO)(Cc3ccccc3C)C2)c1 (stereo unspecified) | inconclusive: 16.5 µM [inhibitor, single point] | – |
| CCOc1ccc(-c2nc(-c3ccc(OC)cc3)no2)cc1OCC | inconclusive: 18.5 µM [inhibitor, single point] | – |
| COc1cc(NS(=O)(=O)c2c(C(=O)N3CCOCC3)c(C)n(C)c2C)cc(OC)c1OC | inconclusive: 13.1 µM [inhibitor, single point] | – |
| Cc1ccnc(NC(=O)c2cccc(S(=O)(=O)N3CCN(c4ccccc4)CC3)c2)c1 | – | inactive: -69.6% |
| O=C(COc1ncnc2ccccc12)N1CCN(S(=O)(=O)c2ccc(Cl)cc2)CC1 | inconclusive: 14.7 µM [inhibitor, partial curve, poor fit] | – |
| COc1ccccc1NS(=O)(=O)c1cc(NC(=O)CNC(=O)c2cc(C)cc(C)c2)ccc1C | inconclusive: 16.5 µM [inhibitor, single point] | – |
| COc1ccc(N(C)S(=O)(=O)c2cccc(C(=O)N(C)Cc3ccc(C)o3)c2)cc1 | – | inactive: -18.3% |
| c1ccc(-c2n[nH]c3ccccc23)cc1 | inconclusive: 10.4 µM [inhibitor, single point] | – |
| CCCC(C)C1C(C#N)=C(N)Oc2c1c(=O)oc1ccccc21 (stereo unspecified) | – | inactive: 0.741% |
| CC(C)(C)C(=O)O/N=C(\N)c1ccc(-c2csnn2)cc1 | – | inactive: 276% |
| CCOC(=O)C1=C(C)N(CCCC(=O)NCc2ccc3c(c2)OCO3)C(=O)NC1c1ccc(Br)cc1 (stereo unspecified) | inconclusive: 10.4 µM [inhibitor, single point] | – |
| CCN(CC)CCn1c2c(c(SCC(=O)Nc3cc(C)ccc3C)nc1=O)CCC2 | inconclusive: 13.1 µM [inhibitor, single point] | – |

Some values from the list.
Under Potency, `CCOC(=O)c1c(C)[nH]c(C)c1C(=O)CSc1nc2ccccc2c(=O)n1-c1ccc(F)cc1` is listed with inconclusive: 14.7 µM [inhibitor, single point]
Under Potency, `c1ccc(-c2n[nH]c3ccccc23)cc1` is listed with inconclusive: 10.4 µM [inhibitor, single point]
Under Potency, `CCCOc1ccccc1NP(=O)(Oc1ccccc1)Oc1ccccc1` is listed with inconclusive: 18.5 µM [inhibitor, single point]
